From PubChem BioAssay AID540276 (National Center for Advancing Translational Sciences (NCATS), 2011)
Screen size: about 300,000 compounds; about 5,400 (1.8%) were called active. This list was built around the results that the source calls inconclusive (neither active nor inactive); the mix of calls is not that of the screen. Calls come from the whole dose curve; tested in HEK293 cells. Potencies of inconclusive entries are doubtful fits and often do not repeat.

assay: qHTS for inhibitors of binding or entry into cells for Marburg Virus; settings: Marburg virus pseudotyped entry inhibition, cell reporter; series mostly up to 37.8 µM
Potency is the fitted concentration of half-maximal effect.

For `Cc1cc(C)cc(NC(=O)CSc2nc3[nH]ncc3c(=O)[nH]2)c1`, which Potency is on record?
Its Potency is inconclusive: 1.12 µM [activator, partial curve].

Which Potency does the source give for `CSCCC(NC(=O)c1ccccc1Cl)C(=O)N1CCC1` (stereo not drawn) here?
Its Potency is “inactive”.

Which Potency does the source give for `COc1cccc(NC(=O)CN(C)C(=O)c2cccnc2Sc2ccc(C)c(C)c2)c1` here?
The Potency was inconclusive: 35.5 µM [inhibitor, single point].

With `Cc1ccc(-c2nnc(Nc3ccccc3)c3ccccc23)cc1S(=O)(=O)NCC1CCCO1` (stereo not drawn) as the compound, how does the Potency read?
Its Potency is inconclusive: 29.1 µM [inhibitor, single point].

For `CCOC(=O)N1CCN(c2nc(SC)nc3sc4c(c23)CC(C)(C)OC4)CC1`, which Potency is on record?
The Potency was “inactive”.

Which Potency does the source give for `O=[N+]([O-])c1ccc(NC(=S)N2CCc3ccccc3C2)cc1` here?
Its Potency is inconclusive: 1.26 µM [activator, single point].

For `C=CCc1cccc2cc(C(=O)NC(C)(C)C)c(=O)oc12`, which Potency is on record?
The Potency was inconclusive: 0.355 µM [activator, full curve, poor fit].

With `CC(C)(C)OC(=O)N1CCC[C@H]1c1nnc(SCc2ccc(Cl)cc2Cl)o1` as the compound, how does the Potency read?
The Potency was active: 8.91 µM.

For `OC[C@H]1O[C@@H](n2cnc3c(Nc4ccccc4)ncnc32)[C@H](O)[C@H]1O`, which Potency is on record?
Its Potency is inconclusive: 35.5 µM [activator, single point].

Which Potency does the source give for `O=C(Cc1ccc(-n2cccc2)cc1)N1CCc2ccccc21` here?
Its Potency is inconclusive: 1.26 µM [inhibitor, partial curve, poor fit].

For `CCOC(=O)c1sc(NC(=O)c2cc(-c3ccccc3C)nc3ccccc23)c(C#N)c1C`, which Potency is on record?
The Potency was inconclusive: 7.08 µM [inhibitor, partial curve, poor fit].

Which Potency does the source give for `O=C(NCC1CCCO1)C(=O)N/N=C/c1ccccc1C(=O)O` (stereo not drawn) here?
The Potency was inconclusive: 4.47 µM [activator, partial curve, poor fit].

For `COc1ccc(-n2c(Cc3cc(=O)[nH]c(=O)[nH]3)nnc2SCC(=O)N2CCCC2)cc1`, which Potency is on record?
The Potency was “inactive”.

With `Cc1cccc(NC(=O)N(Cc2cc3cc(C)ccc3[nH]c2=O)CC2COCCO2)c1` (stereo not drawn) as the compound, how does the Potency read?
The Potency was inconclusive: 0.316 µM [activator, partial curve, poor fit].

For `Cc1cc(C2N=C(N)Nc3nc4ccccc4n32)c(C)n1-c1ccccc1Cl` (stereo not drawn), which Potency is on record?
The Potency was inconclusive: 6.51 µM [inhibitor, partial curve, poor fit].

With `O=C(Nc1ccccc1)C1=C(c2ccccc2)S(=O)(=O)CCS1(=O)=O` as the compound, how does the Potency read?
Its Potency is active: 2.82 µM.

With `Clc1ccccc1Cn1c(/C=C/c2ccco2)nc2ccccc21` as the compound, how does the Potency read?
The Potency was inconclusive: 28.2 µM [inhibitor, single point].

With `CCCCc1cc(=O)oc2cc(OCC(=O)N3CCOCC3)ccc12` as the compound, how does the Potency read?
Its Potency is “inactive”.
